Several values for one entry are separate records, joined by “and”; a condition that tells them apart may be missing. Equal values may be shown once.
Molecular target: T1, Aromatase (Homo sapiens, UniProt P11511)
T1 sequence (P11511 whole entry): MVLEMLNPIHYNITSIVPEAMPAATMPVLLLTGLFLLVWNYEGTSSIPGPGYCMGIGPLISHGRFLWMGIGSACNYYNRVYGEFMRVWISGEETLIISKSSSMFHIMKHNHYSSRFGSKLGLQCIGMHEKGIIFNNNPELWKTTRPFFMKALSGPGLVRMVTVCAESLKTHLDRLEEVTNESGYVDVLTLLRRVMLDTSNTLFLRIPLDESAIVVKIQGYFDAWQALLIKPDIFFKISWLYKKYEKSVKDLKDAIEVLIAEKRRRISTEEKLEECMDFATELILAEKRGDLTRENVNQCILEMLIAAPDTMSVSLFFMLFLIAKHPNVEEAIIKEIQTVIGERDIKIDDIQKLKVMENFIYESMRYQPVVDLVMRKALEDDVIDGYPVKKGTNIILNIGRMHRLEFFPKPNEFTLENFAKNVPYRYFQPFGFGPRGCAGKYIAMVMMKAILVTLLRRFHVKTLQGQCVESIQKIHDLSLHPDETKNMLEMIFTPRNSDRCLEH
Assay: Inhibition of aromatase in human placental microsomes assessed as inhibition of aromatization of [1,2,6,7-3H] androstenedione by flow scintillation analysis
Parameters: species or system Placenta

SMILES: COc1ccc2c(c1)OC(c1ccccc1)CC2n1ccnc1 (stereo unspecified)
- IC50: 60 nM and 600 nM

Reference: ChEMBL document CHEMBL1781966, “Lead optimization of 4-imidazolylflavans: new promising aromatase inhibitors” (Eur J Med Chem, 2011)
